Among the data in PMC9197937 are binding values, retold here.

The chains behind the UniProt entries cited, without tags or fusion partners. Where a name states a change or a piece, a line headed by the entry shows the natural chain unless it says otherwise.
UniProt P0C2H8: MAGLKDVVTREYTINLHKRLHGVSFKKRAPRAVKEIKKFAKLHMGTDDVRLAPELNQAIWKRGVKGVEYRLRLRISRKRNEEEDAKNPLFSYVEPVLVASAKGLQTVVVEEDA

This assay concerns the target eL31 (S. cerevisiae (endogenous in BY4741 background)) (UniProt P0C2H8). The assay can be described thus: cryo-EM structure; RNC-RAC-Ssb1 sample: purified RNC-RAC supplemented with RAC and Ssb1 with ATP (RNC:RAC:Ssb1:ATP roughly 1:5:5:100); states B1-B3, State B2 at 2.9 Å, ZHD and JD region 4 Å; both purified.

No constants are given. Whether binding was seen depends on the method and setting. Binding can be weak; no strength is given.

B1: Zuo1 of recombinant RAC (protein, UniProt P32527 1-433)
chain: MFSLPTLTSDITVEVNSSATKTPFVRRPVEPVGKFFLQHAQRTLRNHTWSEFERIEAEKNVKTVDESNVDPDELLFDTELADEDLLTHDARDWKTADLYAAMGLSKLRFRATESQIIKAHRKQVVKYHPDKQSAAGGSLDQDGFFKIIQKAFETLTDSNKRAQYDSCDFVADVPPPKKGTDYDFYEAWGPVFEAEARFSKKTPIPSLGNKDSSKKEVEQFYAFWHRFDSWRTFEFLDEDVPDDSSNRDHKRYIERKNKAARDKKKTADNARLVKLVERAVSEDPRIKMFKEEEKKEKERRKWEREAGARAEAEAKAKAEAEAKAKAESEAKANASAKADKKKAKEAAKAAKKKNKRAIRNSAKEADYFGDADKATTIDEQVGLIVDSLNDEELVSTADKIKANAAGAKEVLKESAKTIVDSGKLPSSLLSYFV
B1: the binding entry is given as “binds”.
